According to patent US20110201549A1 (UNIVERSITY OF GEORGIA RESEARCH FOUNDATION, published 2011):
Results are given in words; binding and its absence hold for the method and conditions named. Some entries that bind do so weakly or less than the wild type.

Protein sequences, listed by entry. Tags and fused reporters are not part of them. Residues count along the entry.
UniProt Q06117, residues 162-652: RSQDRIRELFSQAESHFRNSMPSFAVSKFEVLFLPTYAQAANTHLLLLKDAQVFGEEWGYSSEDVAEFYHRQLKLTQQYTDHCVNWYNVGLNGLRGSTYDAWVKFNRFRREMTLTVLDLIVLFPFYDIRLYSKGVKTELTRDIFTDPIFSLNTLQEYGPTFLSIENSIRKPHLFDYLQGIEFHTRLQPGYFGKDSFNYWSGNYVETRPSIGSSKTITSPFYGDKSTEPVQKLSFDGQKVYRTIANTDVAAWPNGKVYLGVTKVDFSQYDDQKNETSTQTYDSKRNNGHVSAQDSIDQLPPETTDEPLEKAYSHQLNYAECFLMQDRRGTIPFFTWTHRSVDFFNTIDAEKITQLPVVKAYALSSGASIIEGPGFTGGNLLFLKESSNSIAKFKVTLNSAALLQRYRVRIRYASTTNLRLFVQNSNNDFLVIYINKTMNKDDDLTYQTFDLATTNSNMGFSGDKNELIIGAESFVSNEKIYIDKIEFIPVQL

Molecular target: chymotrypsin-treated Cry3Bb (Bacillus thuringiensis) (UniProt Q06117)
Experiment: ELISA-based binding assay: plates coated with chymotrypsin-treated Cry3Bb, biotinylated TmCad1-TBR, streptavidin-HRP detection

B1: TmCad1-TBR cadherin fragment from the Tenebrio molitor cadherin (T. molitor cadherin Toxin Binding Region) (receptor)
chain: MKQWYQRRVAITAGKDTTSKDKLQYNIDNITPSNLDLDIKSAFTMNTQSGDITINFEVKDSMEGYFTLDLSVQDEEPENHKADATLKIYIVTSKNTVVFRFENDQETVSDKAGDIKSVLDEEFQYETKVEAPTGNTTDGTPLTRSPVFFLNLNTNEPVDATEILKKVTNVDVFQRLKNNFSKVGLVLLSFDSSSETNENLEAHHHHHH
modifications: biotinylated (sites not given)
notes: also called CR12-MPED of TmCad1
binding: binds
